Measurements reported in doi:10.1101/2021.07.13.452210.
Results are given in words; binding and its absence hold for the method and conditions named. In cells and extracts the contact can be indirect. Here binding means that the protein was enriched with, or labelled near, the bait; the list need not be complete.

Protein sequences, listed by entry. Tags and fused reporters are not part of them.
UniProt Q96NB1: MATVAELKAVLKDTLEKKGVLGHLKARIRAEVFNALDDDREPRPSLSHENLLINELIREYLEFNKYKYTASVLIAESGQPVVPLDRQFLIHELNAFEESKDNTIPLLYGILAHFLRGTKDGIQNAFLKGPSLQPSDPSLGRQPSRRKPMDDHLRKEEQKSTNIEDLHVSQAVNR
UniProt Q5VT06: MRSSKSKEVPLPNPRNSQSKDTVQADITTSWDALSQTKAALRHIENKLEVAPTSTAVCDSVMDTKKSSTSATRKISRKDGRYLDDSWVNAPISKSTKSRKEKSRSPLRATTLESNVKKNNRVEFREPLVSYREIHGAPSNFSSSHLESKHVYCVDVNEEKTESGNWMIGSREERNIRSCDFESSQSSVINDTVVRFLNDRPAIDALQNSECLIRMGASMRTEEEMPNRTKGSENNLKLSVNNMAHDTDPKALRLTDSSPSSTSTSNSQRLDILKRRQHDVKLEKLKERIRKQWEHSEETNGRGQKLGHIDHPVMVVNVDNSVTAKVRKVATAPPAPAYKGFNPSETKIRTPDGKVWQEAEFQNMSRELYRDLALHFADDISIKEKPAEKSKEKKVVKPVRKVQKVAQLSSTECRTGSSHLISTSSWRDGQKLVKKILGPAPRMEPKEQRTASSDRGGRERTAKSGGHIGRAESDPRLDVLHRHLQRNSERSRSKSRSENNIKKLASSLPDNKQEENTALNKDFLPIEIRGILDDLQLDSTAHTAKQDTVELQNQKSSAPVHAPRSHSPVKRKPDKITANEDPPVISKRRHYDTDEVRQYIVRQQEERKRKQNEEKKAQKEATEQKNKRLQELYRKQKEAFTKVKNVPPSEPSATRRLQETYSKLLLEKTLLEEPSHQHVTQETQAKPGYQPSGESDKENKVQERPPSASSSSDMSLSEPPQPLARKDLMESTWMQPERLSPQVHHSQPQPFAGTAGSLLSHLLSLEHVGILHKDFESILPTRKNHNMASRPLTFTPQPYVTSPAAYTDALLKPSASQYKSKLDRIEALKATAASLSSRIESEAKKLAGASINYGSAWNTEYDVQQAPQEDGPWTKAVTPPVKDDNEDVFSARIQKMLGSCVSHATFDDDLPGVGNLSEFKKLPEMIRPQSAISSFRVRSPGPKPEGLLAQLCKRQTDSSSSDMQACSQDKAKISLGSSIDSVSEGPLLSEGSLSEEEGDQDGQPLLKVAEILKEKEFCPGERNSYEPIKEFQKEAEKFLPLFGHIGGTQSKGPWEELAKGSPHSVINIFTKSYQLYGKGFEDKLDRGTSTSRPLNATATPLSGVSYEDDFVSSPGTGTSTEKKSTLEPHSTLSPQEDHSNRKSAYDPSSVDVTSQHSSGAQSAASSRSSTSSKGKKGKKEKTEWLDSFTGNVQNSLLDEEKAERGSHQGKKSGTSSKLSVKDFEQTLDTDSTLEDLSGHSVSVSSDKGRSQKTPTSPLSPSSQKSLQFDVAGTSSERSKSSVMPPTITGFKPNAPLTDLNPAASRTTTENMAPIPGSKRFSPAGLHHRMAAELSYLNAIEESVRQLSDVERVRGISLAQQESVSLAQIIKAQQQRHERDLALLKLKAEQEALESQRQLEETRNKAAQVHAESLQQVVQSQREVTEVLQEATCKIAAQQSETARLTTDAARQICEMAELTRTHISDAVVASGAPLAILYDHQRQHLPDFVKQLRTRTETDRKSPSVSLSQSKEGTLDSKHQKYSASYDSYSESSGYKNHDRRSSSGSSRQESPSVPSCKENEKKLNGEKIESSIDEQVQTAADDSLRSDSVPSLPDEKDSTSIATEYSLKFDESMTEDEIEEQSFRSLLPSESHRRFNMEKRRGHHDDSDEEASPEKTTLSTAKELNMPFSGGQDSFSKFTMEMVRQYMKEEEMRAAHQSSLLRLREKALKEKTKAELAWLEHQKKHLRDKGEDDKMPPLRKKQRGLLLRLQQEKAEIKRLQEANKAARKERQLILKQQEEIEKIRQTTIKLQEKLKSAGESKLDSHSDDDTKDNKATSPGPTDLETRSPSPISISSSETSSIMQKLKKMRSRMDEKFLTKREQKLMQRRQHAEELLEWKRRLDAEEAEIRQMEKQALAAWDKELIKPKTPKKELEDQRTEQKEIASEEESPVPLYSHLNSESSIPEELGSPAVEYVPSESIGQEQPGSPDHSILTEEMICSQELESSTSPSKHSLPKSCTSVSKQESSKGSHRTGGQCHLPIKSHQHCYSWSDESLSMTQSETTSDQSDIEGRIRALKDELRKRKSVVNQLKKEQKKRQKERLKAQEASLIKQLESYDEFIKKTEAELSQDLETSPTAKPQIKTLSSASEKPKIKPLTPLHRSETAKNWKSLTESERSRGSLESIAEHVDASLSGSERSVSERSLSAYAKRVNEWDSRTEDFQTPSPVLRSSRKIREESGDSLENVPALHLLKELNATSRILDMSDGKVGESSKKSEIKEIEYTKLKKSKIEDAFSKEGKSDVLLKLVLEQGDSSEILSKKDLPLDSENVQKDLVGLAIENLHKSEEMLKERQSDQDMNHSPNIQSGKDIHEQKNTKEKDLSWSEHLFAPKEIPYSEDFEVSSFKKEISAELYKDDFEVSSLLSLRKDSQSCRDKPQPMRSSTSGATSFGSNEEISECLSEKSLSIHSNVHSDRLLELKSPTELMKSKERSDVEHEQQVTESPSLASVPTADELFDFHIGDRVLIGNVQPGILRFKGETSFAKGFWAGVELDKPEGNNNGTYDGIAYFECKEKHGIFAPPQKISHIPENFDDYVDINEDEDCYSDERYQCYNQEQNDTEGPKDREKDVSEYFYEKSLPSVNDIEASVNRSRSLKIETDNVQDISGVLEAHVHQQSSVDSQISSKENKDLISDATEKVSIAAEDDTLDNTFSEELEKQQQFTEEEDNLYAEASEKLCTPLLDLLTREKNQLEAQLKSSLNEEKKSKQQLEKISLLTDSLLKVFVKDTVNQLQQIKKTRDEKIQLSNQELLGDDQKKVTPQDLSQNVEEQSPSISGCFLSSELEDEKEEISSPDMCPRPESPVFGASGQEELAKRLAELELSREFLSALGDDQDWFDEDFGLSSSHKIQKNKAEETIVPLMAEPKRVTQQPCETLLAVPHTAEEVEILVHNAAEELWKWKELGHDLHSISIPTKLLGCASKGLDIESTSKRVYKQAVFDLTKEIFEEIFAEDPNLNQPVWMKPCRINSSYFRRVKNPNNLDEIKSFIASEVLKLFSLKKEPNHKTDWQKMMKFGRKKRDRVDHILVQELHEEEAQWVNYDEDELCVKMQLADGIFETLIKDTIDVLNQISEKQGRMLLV
UniProt Q15154: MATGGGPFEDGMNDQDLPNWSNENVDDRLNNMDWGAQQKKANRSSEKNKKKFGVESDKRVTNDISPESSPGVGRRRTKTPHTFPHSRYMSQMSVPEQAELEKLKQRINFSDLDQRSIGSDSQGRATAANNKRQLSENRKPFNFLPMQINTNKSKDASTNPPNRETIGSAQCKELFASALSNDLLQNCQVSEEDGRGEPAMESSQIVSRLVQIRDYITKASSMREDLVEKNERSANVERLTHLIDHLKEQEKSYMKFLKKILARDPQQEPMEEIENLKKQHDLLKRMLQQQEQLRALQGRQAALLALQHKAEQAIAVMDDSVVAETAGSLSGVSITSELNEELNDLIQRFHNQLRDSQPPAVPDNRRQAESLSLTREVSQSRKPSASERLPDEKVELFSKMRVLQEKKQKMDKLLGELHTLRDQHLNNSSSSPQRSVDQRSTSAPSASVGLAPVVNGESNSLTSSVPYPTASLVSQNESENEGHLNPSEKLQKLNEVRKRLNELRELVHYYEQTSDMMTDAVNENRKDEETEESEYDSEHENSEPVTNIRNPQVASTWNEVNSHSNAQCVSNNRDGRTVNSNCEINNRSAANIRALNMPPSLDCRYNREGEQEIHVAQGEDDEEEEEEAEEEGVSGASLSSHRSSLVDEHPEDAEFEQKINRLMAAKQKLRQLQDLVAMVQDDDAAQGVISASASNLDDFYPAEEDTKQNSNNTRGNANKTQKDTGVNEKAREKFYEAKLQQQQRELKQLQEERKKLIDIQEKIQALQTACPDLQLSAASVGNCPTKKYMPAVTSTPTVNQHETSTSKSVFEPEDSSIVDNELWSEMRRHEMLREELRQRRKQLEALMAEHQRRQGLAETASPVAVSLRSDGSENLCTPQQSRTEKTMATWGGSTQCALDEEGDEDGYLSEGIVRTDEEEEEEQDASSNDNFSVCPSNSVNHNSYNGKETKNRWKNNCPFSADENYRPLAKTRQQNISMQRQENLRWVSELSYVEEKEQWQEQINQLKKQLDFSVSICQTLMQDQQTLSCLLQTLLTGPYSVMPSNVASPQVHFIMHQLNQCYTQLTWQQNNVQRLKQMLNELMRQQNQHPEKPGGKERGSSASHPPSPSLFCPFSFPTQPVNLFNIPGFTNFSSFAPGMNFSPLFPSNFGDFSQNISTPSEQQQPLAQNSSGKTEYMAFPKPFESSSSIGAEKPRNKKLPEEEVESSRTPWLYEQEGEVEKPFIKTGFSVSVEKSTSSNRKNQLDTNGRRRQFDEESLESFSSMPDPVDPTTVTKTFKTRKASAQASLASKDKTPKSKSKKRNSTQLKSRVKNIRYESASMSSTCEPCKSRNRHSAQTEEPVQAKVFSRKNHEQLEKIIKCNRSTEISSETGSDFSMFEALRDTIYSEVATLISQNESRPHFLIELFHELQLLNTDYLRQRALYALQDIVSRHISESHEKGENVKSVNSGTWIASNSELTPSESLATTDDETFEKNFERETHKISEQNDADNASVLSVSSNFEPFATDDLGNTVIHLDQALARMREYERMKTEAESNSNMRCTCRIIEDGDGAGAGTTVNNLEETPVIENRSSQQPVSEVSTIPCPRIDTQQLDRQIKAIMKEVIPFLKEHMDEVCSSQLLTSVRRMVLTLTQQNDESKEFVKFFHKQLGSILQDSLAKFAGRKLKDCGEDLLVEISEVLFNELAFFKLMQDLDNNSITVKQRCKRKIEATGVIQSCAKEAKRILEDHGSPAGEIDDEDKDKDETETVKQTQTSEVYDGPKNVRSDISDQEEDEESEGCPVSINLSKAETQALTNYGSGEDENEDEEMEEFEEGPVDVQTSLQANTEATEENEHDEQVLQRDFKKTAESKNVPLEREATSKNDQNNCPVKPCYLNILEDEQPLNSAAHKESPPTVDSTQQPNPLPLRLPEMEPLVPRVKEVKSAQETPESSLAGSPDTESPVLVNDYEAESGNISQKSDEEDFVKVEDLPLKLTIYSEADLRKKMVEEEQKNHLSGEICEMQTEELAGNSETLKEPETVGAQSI

B1: endogenous OFIP/MNR/KIAA0753 (protein, UniProt Q2KHM9 1-967)
chain: MGPGQPASTCVHLAPRTQLDGRSDPKVLQTQNQLQFNRNVPTHSSNLAIRYSCPHAIRIEKLKHSYNESYHCKDADCRVGPDLGSSVSFSVISQERLSYAVHLARRDVKRRQFEKHIKEHHLRSQPQSSQKCGHTKYKIPDHRVERKESKSQAACQCSHQPSKVEISSSGAKVYLYSSHPGQSDLTVPNSPPTHDPGLQPHPRIGDHKNISEQKSLLEVQRLQKELSSCIHKIEEVTKKDRLEEALDPDEERRIRIRRQEQAARSARMLYVLQQQVKEIQEELDKLSPHKIKHTKKSWAMSKLAAAHRGAIRALQMFVTQFTDRGEHPLPARCKELGSLIRQLSLCSVKLDADPSVPDVVIDILQQIEALESLLEKKLSPKKVKKCFSEIRSRFPIGSQKALERWPSTSPKGERRPLTAKDTFPQETSRPSVAKQLLADKYQPDTELPETQRLQSELDVLDADIVLEEGPFILDQSASFKDEVLAVAKTKAGKKKPVTENVPFRKKDTLAPARQQGLRKAERGRQSQPHSKSRVQQTTVSSRLKMNRQPVKDRKAPWIPPNPTSPPASPKCAAWLKVKTSPRDATKEPLQQEDPQEESHLTGAVEHEAARLAWLDAETSKRLKELEELKAKEIDSMQKQRLDWLDAETSRRTKELNELKAEEMYRLQQLSVSATHLADKVEEAVLDRLKPLLVKAQRVNSTTEANIHLKDGSSVNTAKAQPAQEVAAVDFESNNIRQLDDFLEDCASELWAVTHAKILGSETLATVEDSKDSPDLEIMMRRMEEMEKYQESVRQRYNKIAYADPRLWMQEENNDQKISAISEKPLSPHPIRITKTVDRKDPAVNIMLERPCNGNSLDESVGTEEGSEKREAPLLSLAEDSQQKEGRAPLFVPPGMQHSIGDYCSRFEQYLRIISHEAVGSFNPWLIAESFSEELVDEALGAVAAELQDMCEDYAEAVFTSEFLEAAT
B2: endogenous CEP90/PIBF1 (protein, UniProt Q8WXW3 1-757)
chain: MSRKISKESKKVNISSSLESEDISLETTVPTDDISSSEEREGKVRITRQLIERKELLHNIQLLKIELSQKTMMIDNLKVDYLTKIEELEEKLNDALHQKQLLTLRLDNQLAFQQKDASKYQELMKQEMETILLRQKQLEETNLQLREKAGDVRRNLRDFELTEEQYIKLKAFPEDQLSIPEYVSVRFYELVNPLRKEICELQVKKNILAEELSTNKNQLKQLTETYEEDRKNYSEVQIRCQRLALELADTKQLIQQGDYRQENYDKVKSERDALEQEVIELRRKHEILEASHMIQTKERSELSKEVVTLEQTVTLLQKDKEYLNRQNMELSVRCAHEEDRLERLQAQLEESKKAREEMYEKYVASRDHYKTEYENKLHDELEQIRLKTNQEIDQLRNASREMYERENRNLREARDNAVAEKERAVMAEKDALEKHDQLLDRYRELQLSTESKVTEFLHQSKLKSFESERVQLLQEETARNLTQCQLECEKYQKKLEVLTKEFYSLQASSEKRITELQAQNSEHQARLDIYEKLEKELDEIIMQTAEIENEDEAERVLFSYGYGANVPTTAKRRLKQSVHLARRVLQLEKQNSLILKDLEHRKDQVTQLSQELDRANSLLNQTQQPYRYLIESVRQRDSKIDSLTESIAQLEKDVSNLNKEKSALLQTKNQMALDLEQLLNHREELAAMKQILVKMHSKHSENSLLLTKTEPKHVTENQKSKTLNVPKEHEDNIFTPKPTLFTKKEAPEWSKKQKMKT
B3: Cep131 (protein, UniProt Q9UPN4 1-1083)
chain: MKGTRAIGSVPERSPAGVDLSLTGLPPPVSRRPGSAATTKPIVRSVSVVTGSEQKRKVLEATGPGGSQAINNLRRSNSTTQVSQPRSGSPRPTEPTDFLMLFEGSPSGKKRPASLSTAPSEKGATWNVLDDQPRGFTLPSNARSSSALDSPAGPRRKECTVALAPNFTANNRSNKGAVGNCVTTMVHNRYTPSERAPPLKSSNQTAPSLNNIIKAATCEGSESSGFGKLPKNVSSATHSARNNTGGSTGLPRRKEVTEEEAERFIHQVNQATVTIQRWYRHQVQRRGAGAARLEHLLQAKREEQRQRSGEGTLLDLHQQKEAARRKAREEKARQARRAAIQELQQKRALRAQKASTAERGPPENPRETRVPGMRQPAQELSPTPGGTAHQALKANNTGGGLPAAGPGDRCLPTSDSSPEPQQPPEDRTQDVLAQDAAGDNLEMMAPSRGSAKSRGPLEELLHTLQLLEKEPDVLPRPRTHHRGRYAWASEVTTEDDASSLTADNLEKFGKLSAFPEPPEDGTLLSEAKLQSIMSFLDEMEKSGQDQLDSQQEGWVPEAGPGPLELGSEVSTSVMRLKLEVEEKKQAMLLLQRALAQQRDLTARRVKETEKALSRQLQRQREHYEATIQRHLAFIDQLIEDKKVLSEKCEAVVAELKQEDQRCTERVAQAQAQHELEIKKLKELMSATEKARREKWISEKTKKIKEVTVRGLEPEIQKLIARHKQEVRRLKSLHEAELLQSDERASQRCLRQAEELREQLEREKEALGQQERERARQRFQQHLEQEQWALQQQRQRLYSEVAEERERLGQQAARQRAELEELRQQLEESSSALTRALRAEFEKGREEQERRHQMELNTLKQQLELERQAWEAGRTRKEEAWLLNREQELREEIRKGRDKEIELVIHRLEADMALAKEESEKAAESRIKRLRDKYEAELSELEQSERKLQERCSELKGQLGEAEGENLRLQGLVRQKERALEDAQAVNEQLSSERSNLAQVIRQEFEDRLAASEEETRQAKAELATLQARQQLELEEVHRRVKTALARKEEAVSSLRTQHEAAVKRADHLEELLEQHRRPTPSTK

Target: myc-BirA*-FOPNL (human) (UniProt Q96NB1)
Test: proximity labelling

binding, binds:
CEP350 (from UniProt Q5VT06 1-3117)
PCM1 (from UniProt Q15154 1-2024)
Talpid3 (from UniProt Q9BVV6 1-1533)
B1
B2
B3
